# Results taken from the supplement of paper PMC10849652.
# Amino acid sequences for entries named in this document (tags omitted). A change or cut given only in a name is not applied to a line headed by its entry.
# UniProt P57060: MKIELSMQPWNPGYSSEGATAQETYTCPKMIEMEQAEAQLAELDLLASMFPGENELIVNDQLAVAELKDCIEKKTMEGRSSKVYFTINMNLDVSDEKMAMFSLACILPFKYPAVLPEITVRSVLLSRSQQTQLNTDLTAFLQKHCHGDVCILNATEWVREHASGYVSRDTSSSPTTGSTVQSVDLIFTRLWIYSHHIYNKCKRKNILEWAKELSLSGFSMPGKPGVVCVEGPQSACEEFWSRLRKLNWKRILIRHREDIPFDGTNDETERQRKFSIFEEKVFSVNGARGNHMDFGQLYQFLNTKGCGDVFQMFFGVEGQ
# UniProt Q6P087: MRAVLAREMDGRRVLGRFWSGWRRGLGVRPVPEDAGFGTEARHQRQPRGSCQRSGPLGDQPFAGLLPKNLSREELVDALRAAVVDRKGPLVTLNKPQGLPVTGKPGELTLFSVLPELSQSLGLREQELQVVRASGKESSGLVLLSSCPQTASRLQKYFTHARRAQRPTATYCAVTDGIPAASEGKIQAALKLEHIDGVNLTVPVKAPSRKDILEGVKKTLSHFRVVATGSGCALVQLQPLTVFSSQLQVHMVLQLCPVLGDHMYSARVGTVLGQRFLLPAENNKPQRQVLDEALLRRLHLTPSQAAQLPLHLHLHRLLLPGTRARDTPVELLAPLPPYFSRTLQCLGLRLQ
# UniProt Q96P16: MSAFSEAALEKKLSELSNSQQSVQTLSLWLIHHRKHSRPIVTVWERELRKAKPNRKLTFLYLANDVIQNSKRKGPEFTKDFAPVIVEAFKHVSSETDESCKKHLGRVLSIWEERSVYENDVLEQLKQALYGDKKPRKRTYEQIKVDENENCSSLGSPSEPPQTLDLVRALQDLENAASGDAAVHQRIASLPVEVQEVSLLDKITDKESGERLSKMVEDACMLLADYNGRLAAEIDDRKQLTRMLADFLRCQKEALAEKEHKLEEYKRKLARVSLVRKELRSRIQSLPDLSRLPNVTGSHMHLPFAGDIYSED
# UniProt Q8N5L8: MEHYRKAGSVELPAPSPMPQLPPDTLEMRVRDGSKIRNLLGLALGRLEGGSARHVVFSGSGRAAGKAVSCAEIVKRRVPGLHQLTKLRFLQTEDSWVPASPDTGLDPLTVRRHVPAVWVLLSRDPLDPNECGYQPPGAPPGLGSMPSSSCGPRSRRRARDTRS
# UniProt P04843: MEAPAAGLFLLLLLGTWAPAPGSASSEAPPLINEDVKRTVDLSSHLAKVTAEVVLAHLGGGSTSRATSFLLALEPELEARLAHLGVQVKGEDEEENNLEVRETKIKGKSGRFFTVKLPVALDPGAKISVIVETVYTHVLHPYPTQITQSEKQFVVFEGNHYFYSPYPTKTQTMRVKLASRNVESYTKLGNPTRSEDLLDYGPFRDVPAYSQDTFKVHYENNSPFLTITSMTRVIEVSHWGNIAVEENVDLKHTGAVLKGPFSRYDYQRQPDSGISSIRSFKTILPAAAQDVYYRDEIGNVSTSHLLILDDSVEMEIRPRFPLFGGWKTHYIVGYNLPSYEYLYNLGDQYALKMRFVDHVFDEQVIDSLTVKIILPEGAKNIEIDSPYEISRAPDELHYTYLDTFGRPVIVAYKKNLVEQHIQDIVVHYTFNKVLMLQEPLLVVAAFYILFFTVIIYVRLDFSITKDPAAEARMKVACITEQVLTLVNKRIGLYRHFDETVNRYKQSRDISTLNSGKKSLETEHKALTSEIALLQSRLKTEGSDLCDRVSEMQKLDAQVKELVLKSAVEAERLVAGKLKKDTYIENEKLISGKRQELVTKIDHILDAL
# UniProt P23297: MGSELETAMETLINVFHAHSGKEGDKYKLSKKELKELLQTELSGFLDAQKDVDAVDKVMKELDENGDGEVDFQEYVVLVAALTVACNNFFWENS
# UniProt Q9Y265, whole entry, looked up: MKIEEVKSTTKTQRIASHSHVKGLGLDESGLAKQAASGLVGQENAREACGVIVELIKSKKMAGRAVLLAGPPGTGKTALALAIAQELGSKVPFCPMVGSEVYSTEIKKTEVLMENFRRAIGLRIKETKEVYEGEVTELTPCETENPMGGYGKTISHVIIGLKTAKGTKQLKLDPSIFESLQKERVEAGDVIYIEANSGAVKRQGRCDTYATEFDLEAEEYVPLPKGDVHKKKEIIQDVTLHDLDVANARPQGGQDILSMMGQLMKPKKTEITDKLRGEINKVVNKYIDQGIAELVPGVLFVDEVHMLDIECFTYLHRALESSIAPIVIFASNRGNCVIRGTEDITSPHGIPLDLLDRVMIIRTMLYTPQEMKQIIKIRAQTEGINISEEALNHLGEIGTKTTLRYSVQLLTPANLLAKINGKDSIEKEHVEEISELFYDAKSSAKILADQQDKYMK
# UniProt Q5VT52: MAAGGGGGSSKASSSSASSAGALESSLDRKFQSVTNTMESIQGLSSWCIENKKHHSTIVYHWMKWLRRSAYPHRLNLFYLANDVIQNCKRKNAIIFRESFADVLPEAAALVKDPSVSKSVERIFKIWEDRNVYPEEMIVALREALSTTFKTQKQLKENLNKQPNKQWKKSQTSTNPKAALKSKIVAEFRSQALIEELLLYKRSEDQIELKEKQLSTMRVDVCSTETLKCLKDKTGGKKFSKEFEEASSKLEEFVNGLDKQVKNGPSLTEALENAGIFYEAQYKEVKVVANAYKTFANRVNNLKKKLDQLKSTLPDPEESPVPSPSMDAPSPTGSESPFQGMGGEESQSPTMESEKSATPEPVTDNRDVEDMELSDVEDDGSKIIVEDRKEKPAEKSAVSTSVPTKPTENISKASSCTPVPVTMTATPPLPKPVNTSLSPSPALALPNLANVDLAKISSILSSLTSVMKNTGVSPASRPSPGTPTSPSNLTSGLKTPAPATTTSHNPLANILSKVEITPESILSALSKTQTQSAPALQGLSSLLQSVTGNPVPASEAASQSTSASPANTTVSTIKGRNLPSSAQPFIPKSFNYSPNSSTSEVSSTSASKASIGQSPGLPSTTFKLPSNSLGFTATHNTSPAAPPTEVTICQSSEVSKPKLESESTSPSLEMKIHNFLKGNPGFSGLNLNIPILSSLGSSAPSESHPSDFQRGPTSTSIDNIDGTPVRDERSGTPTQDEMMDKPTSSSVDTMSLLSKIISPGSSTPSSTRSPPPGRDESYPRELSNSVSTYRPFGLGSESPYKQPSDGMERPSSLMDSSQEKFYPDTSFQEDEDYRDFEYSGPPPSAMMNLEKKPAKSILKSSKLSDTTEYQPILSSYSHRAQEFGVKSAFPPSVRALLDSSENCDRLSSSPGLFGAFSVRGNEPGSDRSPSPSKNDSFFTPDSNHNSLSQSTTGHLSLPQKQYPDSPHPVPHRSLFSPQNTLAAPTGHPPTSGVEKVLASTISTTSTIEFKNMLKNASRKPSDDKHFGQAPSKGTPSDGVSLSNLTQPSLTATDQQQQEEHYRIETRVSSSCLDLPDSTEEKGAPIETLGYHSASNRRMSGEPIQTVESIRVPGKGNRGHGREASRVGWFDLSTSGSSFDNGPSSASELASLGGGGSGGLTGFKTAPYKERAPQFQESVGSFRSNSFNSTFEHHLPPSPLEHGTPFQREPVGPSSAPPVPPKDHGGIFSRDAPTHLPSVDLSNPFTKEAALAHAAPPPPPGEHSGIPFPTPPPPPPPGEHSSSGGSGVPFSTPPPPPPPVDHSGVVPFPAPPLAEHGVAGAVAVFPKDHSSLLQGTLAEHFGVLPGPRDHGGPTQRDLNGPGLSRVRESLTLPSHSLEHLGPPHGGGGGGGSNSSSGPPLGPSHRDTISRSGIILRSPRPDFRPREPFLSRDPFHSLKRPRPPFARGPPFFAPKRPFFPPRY
# UniProt Q96T23: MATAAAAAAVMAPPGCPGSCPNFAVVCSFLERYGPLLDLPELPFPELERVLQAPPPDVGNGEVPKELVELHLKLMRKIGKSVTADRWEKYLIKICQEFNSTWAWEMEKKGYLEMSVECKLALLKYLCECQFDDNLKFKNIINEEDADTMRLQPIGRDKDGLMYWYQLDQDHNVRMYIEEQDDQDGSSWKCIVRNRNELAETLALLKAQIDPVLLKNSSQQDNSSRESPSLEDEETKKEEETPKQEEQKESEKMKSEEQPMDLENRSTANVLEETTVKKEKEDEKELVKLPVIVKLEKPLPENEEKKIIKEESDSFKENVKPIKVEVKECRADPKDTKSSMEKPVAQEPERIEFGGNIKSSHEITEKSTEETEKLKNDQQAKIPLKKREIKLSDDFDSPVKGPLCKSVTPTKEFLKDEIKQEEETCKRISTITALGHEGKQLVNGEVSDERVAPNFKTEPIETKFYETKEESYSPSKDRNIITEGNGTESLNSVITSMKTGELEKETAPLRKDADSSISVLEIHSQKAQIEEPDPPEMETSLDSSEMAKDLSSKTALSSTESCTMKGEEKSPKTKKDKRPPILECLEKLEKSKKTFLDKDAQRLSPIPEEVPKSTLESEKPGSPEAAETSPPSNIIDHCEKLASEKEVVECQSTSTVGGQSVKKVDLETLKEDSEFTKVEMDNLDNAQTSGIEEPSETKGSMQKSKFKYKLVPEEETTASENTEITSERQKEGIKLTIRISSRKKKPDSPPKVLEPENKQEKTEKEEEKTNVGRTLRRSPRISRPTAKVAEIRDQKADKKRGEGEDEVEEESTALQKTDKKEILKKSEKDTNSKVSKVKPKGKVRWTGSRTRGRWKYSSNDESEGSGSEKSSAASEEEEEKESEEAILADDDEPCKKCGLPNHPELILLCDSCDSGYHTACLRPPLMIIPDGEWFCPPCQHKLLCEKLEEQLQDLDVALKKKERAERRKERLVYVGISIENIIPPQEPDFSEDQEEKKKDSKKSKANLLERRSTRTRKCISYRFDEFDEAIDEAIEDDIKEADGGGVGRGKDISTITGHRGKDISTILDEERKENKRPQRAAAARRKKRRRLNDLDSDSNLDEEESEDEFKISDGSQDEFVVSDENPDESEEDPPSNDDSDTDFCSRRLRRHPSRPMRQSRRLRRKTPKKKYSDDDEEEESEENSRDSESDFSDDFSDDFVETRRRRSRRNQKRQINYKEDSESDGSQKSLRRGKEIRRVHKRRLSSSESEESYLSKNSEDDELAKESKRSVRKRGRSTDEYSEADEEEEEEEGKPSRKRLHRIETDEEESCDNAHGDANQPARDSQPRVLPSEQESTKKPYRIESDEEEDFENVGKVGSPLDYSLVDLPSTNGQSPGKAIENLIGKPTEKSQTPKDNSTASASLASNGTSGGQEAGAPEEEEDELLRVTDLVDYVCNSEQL
# UniProt Q96T51: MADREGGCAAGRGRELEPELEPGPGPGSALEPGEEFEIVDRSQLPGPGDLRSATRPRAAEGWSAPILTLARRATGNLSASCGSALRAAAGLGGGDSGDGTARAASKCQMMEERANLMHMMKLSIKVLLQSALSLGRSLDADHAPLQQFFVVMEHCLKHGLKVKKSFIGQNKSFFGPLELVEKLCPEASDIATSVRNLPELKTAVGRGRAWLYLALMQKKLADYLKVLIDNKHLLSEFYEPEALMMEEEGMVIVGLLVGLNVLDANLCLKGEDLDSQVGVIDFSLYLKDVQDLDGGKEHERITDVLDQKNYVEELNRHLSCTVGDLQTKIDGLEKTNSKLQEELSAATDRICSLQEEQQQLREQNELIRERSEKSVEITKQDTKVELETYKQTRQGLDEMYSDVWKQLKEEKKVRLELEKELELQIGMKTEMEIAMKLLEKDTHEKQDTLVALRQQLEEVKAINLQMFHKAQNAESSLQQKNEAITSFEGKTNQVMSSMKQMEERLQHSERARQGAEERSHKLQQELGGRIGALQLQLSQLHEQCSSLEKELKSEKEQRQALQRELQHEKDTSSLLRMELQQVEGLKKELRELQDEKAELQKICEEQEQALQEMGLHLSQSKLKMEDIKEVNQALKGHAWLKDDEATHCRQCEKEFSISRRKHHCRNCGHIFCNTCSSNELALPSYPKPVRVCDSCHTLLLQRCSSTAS
# UniProt O75298: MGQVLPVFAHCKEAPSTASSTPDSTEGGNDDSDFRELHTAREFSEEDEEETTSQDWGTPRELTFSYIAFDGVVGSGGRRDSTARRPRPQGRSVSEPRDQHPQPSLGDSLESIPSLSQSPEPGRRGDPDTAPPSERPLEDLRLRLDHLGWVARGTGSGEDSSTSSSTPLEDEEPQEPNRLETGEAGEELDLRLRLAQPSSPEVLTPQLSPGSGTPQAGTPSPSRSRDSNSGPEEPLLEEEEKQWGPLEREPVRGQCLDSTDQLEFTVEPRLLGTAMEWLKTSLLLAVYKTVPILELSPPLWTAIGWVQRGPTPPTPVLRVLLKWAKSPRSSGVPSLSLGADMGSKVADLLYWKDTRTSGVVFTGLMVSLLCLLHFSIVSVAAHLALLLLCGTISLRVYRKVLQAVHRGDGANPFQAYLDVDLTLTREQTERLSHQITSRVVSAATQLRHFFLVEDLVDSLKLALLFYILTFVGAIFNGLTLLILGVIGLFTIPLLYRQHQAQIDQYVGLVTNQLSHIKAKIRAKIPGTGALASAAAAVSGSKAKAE
# UniProt Q99584: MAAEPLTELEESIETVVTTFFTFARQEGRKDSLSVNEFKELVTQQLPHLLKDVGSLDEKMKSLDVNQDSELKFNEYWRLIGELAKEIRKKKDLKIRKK
# The other results are listed elsewhere or left out.
# Columns and labels:
# Assay in all cases: log2 fold change, soluble protein after heating vs DMSO (PISA); higher = thermal stabilisation; K562 lysate, 10 uM; active = over 0.2 and 3.5 SD of the protein, either way, in both replicates (recomputed)
# [1] = compound: NCC(=O)Nc1ccc(-n2nc(C(F)(F)F)cc2-c2ccc3c(ccc4ccccc43)c2)cc1
# Procedure, shortened: (§1)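 Pellets of K562 cells were dounce-homogenised in PBS pH 7.4 with 1 mM MgCl2, and the crude extract was held at 1 mg/mL protein for a 30 min treatment with 10 μM compound. Aliquots were heated for 3 min over 48°C-58°C and pooled before NP-40 was added to 0.5% at 4°C. The supernatant from 21,000xg for 90 min was quantified by TMTpro 16plex LC-MS/MS with channel sums equalised. Values are reported from duplicates as log-two fold change in thermal stability relative to solvent controls.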
# vorinostat = compound: O=C(CCCCCCC(=O)Nc1ccccc1)NO [vorinostat]
# Procedure, shortened: as §1
# silmitasertib = compound: O=C(O)c1ccc2c(c1)nc(Nc1cccc(Cl)c1)c1ccncc12 [silmitasertib]
# Procedure, shortened: as §1
# [2] = compound: O=C1NC(=O)C(c2cnc3ccccn23)=C1c1cn2c3c(cc(F)cc13)CN(C(=O)N1CCCCC1)CC2
# Procedure, shortened: as §1
# entospletinib = compound: c1cn2cc(-c3ccc4cn[nH]c4c3)nc(Nc3ccc(N4CCOCC4)cc3)c2n1 [entospletinib]
# Procedure, shortened: as §1
Target,log2 fold change [1],log2 fold change (vorinostat),log2 fold change (silmitasertib),log2 fold change [2],log2 fold change (entospletinib)
RWDD2B (UniProt P57060),inactive: 0.093,inactive: 0.011,inactive: -0.037,inactive: -0.06,inactive: 0.06
RRBP1 (UniProt Q9P2E9),inactive: 0.003,inactive: 0.07,inactive: 0.015,inactive: 0.034,inactive: -0.002
RPS7 (UniProt P62081),inactive: 0.004,inactive: 0.121,inactive: 0.022,inactive: 0.072,inactive: 0.008
RPS24 isoform 4 (UniProt P62847),inactive: -0.023,inactive: 0.137,inactive: 0.018,inactive: 0.012,inactive: 0.004
RPS2 (UniProt P15880),inactive: 0.003,inactive: 0.13,inactive: 0.01,inactive: 0.007,inactive: 0.014
RRP8 (UniProt O43159),inactive: 0.017,inactive: -0.066,inactive: 0.002,inactive: -0.009,inactive: -0.057
RTN4 (UniProt Q9NQC3),inactive: 0.048,inactive: 0.133,inactive: -0.036,inactive: 0.002,inactive: 0.009
RPS18 (UniProt P62269),inactive: 0.033,inactive: 0.081,inactive: 0.019,inactive: 0.007,inactive: -0.02
RPL36AL (UniProt Q969Q0),inactive: -0.056,inactive: 0.124,inactive: 0.011,inactive: 0.131,inactive: -0.001
RPL37A (UniProt P61513),inactive: 0.028,inactive: 0.08,inactive: -0.021,inactive: 0.093,inactive: -0.005
RPUSD2 (UniProt Q8IZ73),inactive: 0.043,inactive: 0.09,inactive: -0.027,inactive: 0.005,inactive: -0.002
RTN4IP1 (UniProt Q8WWV3),inactive: -0.1,active: -0.338,inactive: 0.165,inactive: 0.054,inactive: -0.01
RPS6KA3 (UniProt P51812),inactive: -0.017,inactive: -0.384,inactive: 0.362,inactive: 0.181,inactive: -0.052
RPS6KB1 (UniProt P23443),inactive: -0.049,active: -0.319,inactive: 0.132,inactive: -0.017,inactive: -0.005
RPUSD3 (UniProt Q6P087),inactive: -0.056,inactive: -0.144,inactive: 0.062,inactive: 0.009,inactive: -0.016
RPRD1B (UniProt Q9NQG5),inactive: -0.028,inactive: -0.011,inactive: 0.047,inactive: -0.04,inactive: 0.014
RPRD1A (UniProt Q96P16),inactive: 0.038,inactive: -0.274,inactive: 0.065,inactive: -0.007,inactive: -0.002
RPS19 (UniProt P39019),inactive: 0.013,inactive: 0.092,inactive: 0.021,inactive: -0.006,inactive: 0.025
RRM1 (UniProt P23921),inactive: 0.011,active: -0.227,inactive: 0.027,inactive: -0.003,inactive: -0.013
RPL39P5 (UniProt Q59GN2),inactive: 0.003,inactive: 0.181,inactive: -0.019,inactive: -0.006,inactive: -0.013
RPP25L (UniProt Q8N5L8),inactive: 0.037,inactive: 0.13,inactive: -0.131,inactive: 0.003,inactive: -0.08
RPN1 (UniProt P04843),inactive: 0.016,inactive: 0.08,inactive: -0.01,inactive: -0.001,inactive: -0.001
S100A1 (UniProt P23297),inactive: -0.024,inactive: 0.164,inactive: -0.052,inactive: -0.071,inactive: -0.086
RYBP (UniProt Q8N488),inactive: -0.026,inactive: -0.004,inactive: 0.049,inactive: 0.031,inactive: -0.091
RPTOR (UniProt Q8N122),inactive: 0.002,active: -0.337,inactive: 0.048,inactive: 0.012,inactive: -0.01
RUVBL1 (UniProt Q9Y265),inactive: 0.017,inactive: 0.092,inactive: -0.019,inactive: 0.037,inactive: 0.003
RPP14 (UniProt O95059),inactive: 0.043,inactive: 0.047,inactive: -0.037,inactive: -0.058,inactive: 0.039

Target,log2 fold change [1],log2 fold change (vorinostat),log2 fold change (silmitasertib),log2 fold change [2],log2 fold change (entospletinib)
RPLP2 (UniProt P05387),inactive: 0.013,inactive: 0.157,inactive: -0.017,inactive: -0.024,inactive: -0.029
RPS27L (UniProt Q71UM5),inactive: -0.002,inactive: 0.085,inactive: -0.012,inactive: 0.019,inactive: 0.026
RWDD2A (UniProt Q9UIY3),inactive: -0.114,inactive: 0.113,inactive: -0.044,inactive: 0.016,inactive: 0.017
RPL4 (UniProt P36578),inactive: -0.015,inactive: 0.079,inactive: 0.021,inactive: -0.001,inactive: 0.007
RRP1 (UniProt P56182),inactive: 0.041,inactive: 0.04,inactive: 0.13,inactive: 0.007,inactive: 0.156
RPS29 (UniProt P62273),inactive: -0.105,inactive: 0.145,inactive: -0.03,inactive: 0.205,inactive: -0.085
RPRD2 (UniProt Q5VT52),inactive: 0.048,inactive: -0.133,inactive: 0,inactive: 0.02,inactive: -0.006
RPS10 (UniProt P46783),inactive: 0.036,inactive: 0.071,inactive: 0.028,inactive: 0.013,inactive: -0.034
S100A4 (UniProt P26447),inactive: -0.067,inactive: 0.042,inactive: -0.057,inactive: 0.282,inactive: -0.051
RTN4 isoform 2 (UniProt Q9NQC3),inactive: -0.01,inactive: 0.079,inactive: -0.184,inactive: -0.077,inactive: -0.004
RPS16 (UniProt P62249),inactive: -0.031,inactive: 0.074,inactive: 0.056,inactive: 0.005,inactive: -0.005
RPL37 (UniProt P61927),inactive: 0.059,inactive: 0.065,inactive: -0.001,inactive: 0.051,inactive: 0.012
RSF1 (UniProt Q96T23),inactive: -0.04,inactive: 0.119,inactive: -0.097,inactive: 0.022,inactive: -0.033
RPS3A (UniProt P61247),inactive: -0.028,inactive: 0.082,inactive: 0.003,inactive: -0.016,inactive: 0.007
RPL7L1 (UniProt Q6DKI1),inactive: 0.003,inactive: 0.014,inactive: -0.059,inactive: -0.01,inactive: 0.011
RPP21 isoform 4 (UniProt Q9H633),inactive: 0.138,inactive: 0.001,inactive: -0.013,inactive: 0.045,inactive: 0.096
RPS6KC1 (UniProt Q96S38),inactive: 0.008,inactive: -0.132,inactive: 0.074,inactive: -0.049,inactive: -0.014
RTF1 (UniProt Q92541),inactive: -0.008,inactive: -0.044,inactive: 0.005,inactive: -0.054,inactive: -0.015
RPL5 (UniProt P46777),inactive: -0.014,inactive: 0.1,inactive: -0.001,inactive: 0,inactive: -0.01
RSPRY1 (UniProt Q96DX4),inactive: 0.038,inactive: 0.014,inactive: -0.047,inactive: 0.014,inactive: 0.025
RPS5 (UniProt P46782),inactive: 0,inactive: -0.009,inactive: 0.019,inactive: 0.051,inactive: 0.045
RPS17 (UniProt P08708),inactive: 0.02,inactive: 0.12,inactive: 0.003,inactive: -0.009,inactive: -0.002
RUFY1 (UniProt Q96T51),inactive: 0.04,inactive: -0.054,inactive: 0.011,inactive: -0.001,inactive: 0.008
RTN2 (UniProt O75298),inactive: -0.025,inactive: 0.079,inactive: 0,inactive: -0.05,inactive: 0.032
RPL6 (UniProt Q02878),inactive: -0.015,inactive: 0.098,inactive: -0.012,inactive: 0.01,inactive: 0.026
S100A13 (UniProt Q99584),inactive: 0.012,inactive: 0.133,inactive: -0.029,inactive: -0.027,inactive: 0.008

# Reprinted at random: 3 entries already listed.
Target,log2 fold change [1],log2 fold change (vorinostat),log2 fold change (silmitasertib),log2 fold change [2],log2 fold change (entospletinib)
RPL39P5 (UniProt Q59GN2),inactive: 0.003,inactive: 0.181,inactive: -0.019,inactive: -0.006,inactive: -0.013
RPS2 (UniProt P15880),inactive: 0.003,inactive: 0.13,inactive: 0.01,inactive: 0.007,inactive: 0.014
RYBP (UniProt Q8N488),inactive: -0.026,inactive: -0.004,inactive: 0.049,inactive: 0.031,inactive: -0.091
